## Screening data, single-dose tests

Sequences of proteins named here, by UniProt entry; tags and fusion partners are left off. Residues count along the entry.
UniProt P9WFT3, whole entry: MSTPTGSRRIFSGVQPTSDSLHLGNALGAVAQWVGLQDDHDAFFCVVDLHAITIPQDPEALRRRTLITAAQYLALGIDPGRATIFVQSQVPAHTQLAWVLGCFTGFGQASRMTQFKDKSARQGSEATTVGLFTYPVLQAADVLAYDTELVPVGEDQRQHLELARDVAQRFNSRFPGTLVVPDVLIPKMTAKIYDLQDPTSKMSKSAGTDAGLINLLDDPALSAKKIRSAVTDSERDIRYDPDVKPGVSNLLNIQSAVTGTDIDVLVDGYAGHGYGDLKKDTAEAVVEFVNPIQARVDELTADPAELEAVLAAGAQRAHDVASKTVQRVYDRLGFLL
UniProt I6X8D2, whole entry: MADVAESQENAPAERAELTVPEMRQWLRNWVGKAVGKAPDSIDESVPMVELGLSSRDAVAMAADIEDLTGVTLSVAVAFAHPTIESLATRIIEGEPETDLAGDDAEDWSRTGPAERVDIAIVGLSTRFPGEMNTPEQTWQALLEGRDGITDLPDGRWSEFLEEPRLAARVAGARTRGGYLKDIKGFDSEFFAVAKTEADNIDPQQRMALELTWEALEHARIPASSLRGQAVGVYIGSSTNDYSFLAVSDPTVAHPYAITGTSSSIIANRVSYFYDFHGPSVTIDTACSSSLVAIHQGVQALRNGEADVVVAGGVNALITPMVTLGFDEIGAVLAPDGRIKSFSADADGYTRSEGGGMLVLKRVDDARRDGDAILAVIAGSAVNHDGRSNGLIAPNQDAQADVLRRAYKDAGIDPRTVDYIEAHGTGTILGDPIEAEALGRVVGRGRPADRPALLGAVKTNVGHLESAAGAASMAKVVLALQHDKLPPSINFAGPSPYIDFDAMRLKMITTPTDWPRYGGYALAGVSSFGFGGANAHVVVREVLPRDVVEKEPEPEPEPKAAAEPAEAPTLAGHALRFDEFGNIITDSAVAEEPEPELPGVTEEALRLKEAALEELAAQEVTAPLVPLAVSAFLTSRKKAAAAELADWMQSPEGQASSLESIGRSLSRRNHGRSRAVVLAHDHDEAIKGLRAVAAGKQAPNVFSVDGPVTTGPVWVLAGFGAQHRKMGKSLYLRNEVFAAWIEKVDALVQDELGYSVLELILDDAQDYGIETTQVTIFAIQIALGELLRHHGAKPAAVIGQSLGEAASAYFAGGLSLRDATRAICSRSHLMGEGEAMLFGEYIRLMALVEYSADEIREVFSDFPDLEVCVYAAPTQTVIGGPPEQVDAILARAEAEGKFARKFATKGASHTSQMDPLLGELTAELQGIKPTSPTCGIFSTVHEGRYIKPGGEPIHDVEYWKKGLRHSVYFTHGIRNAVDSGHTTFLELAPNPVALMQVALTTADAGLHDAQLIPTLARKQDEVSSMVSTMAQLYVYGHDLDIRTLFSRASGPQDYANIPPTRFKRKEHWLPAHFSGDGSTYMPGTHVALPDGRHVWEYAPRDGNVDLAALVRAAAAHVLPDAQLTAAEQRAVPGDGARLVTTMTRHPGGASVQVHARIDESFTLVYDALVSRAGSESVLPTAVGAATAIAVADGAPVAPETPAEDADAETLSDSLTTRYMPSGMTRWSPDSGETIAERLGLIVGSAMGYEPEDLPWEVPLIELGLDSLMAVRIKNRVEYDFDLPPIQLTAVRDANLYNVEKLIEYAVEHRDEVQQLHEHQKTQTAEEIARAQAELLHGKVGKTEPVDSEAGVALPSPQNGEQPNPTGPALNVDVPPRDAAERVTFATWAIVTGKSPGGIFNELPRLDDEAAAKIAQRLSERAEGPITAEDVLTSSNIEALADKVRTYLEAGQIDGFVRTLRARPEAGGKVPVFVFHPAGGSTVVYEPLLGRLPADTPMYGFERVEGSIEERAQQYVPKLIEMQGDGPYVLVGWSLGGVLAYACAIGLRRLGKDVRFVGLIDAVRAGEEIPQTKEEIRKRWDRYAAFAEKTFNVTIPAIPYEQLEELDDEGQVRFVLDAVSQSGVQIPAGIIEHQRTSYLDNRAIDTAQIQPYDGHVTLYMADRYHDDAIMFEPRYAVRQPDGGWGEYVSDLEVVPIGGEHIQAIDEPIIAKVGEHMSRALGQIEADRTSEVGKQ
UniProt Q4DA54, 1-478: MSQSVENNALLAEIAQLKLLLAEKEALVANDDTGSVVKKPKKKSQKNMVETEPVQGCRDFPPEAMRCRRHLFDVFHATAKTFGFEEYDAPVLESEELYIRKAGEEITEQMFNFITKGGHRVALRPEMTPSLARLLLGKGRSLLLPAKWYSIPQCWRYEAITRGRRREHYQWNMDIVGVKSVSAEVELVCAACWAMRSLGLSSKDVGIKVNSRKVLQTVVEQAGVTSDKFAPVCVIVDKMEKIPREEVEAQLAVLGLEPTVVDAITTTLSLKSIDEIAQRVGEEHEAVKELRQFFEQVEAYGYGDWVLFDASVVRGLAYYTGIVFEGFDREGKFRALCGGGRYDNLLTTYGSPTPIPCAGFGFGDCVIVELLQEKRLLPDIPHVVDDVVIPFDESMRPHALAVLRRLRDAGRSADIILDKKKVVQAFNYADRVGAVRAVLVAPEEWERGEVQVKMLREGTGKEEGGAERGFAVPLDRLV

From ChEMBL document CHEMBL3988442, “University of Dundee, Small-Polar-MMV Screening Library” (2021).

MtTrpRS: 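Enzyme assay of tryptophanyl-tRNA synthetase; the read-out is not stated. Target: Tryptophan-tRNA ligase, Mycobacterium tuberculosis (UniProt P9WFT3). Concentration: 10 µM. Direction is not recorded; retested compounds ran higher, which suggests that high means inhibition. Of about 65,000 compounds tested this way, about 64 (0.098%) reached 50% or more in at least one test.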
Leishmania in macrophages: 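Cell assay of Leishmania donovani living inside macrophages; the read-out is not stated. Compounds at 30 µM. The record gives no direction; compounds that gave an IC50 in retests scored well above the rest, so higher reads as stronger inhibition. About 69,000 compounds were tested under these conditions; 1.5% (about 1,000) showed 50% or more at least once.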
Pks13 thioesterase: 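Enzyme assay of the thioesterase domain of polyketide synthase 13; the read-out is not stated. Target: Polyketide synthase Pks13, Mycobacterium tuberculosis (UniProt I6X8D2). Concentration: 30 µM. The record gives no direction; the compounds picked for IC50 retests had high values, so higher reads as stronger inhibition. About 67,000 compounds were tested under these conditions; 0.46% (about 300) showed 50% or more at least once.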
TcHisRS: 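Enzyme assay of histidyl-tRNA synthetase; the read-out is not stated. Target: Histidine-tRNA ligase, Trypanosoma cruzi CL Brener (UniProt Q4DA54). Tested at 30 µM. Direction is inferred from retests: higher values go with stronger inhibition. Size under these conditions: about 69,000 compounds, about 31 of them at 50% or above in at least one test.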

Results are given as percent effect.
The record does not define 0% and 100%; most values in the screen are far below 50% and negative numbers occur (in some assays of this library far below -100).
This is an unselected part of the compounds tested.
Two or more numbers in one place are separate tests of the same structure; such repeats can differ widely.
A dash means the value is not listed here; it may have been measured.

SMILES,MtTrpRS,Leishmania in macrophages,Pks13 thioesterase,TcHisRS
CNC(=O)CNC(=O)NCc1cc2c(s1)CCC(C)(C)C2,2.352,2.136,-28.44,-0.5525
CC1COCCN1C(=O)NCCn1ccnc1 (stereo not shown),-2.886,17.06,-37.18,2.809
O=C(O)C(F)(F)F.[H][C@@]12CCN(Cc3ccc(C)s3)C[C@]1([H])[C@H](c1nc(C)no1)CCO2,-,34.21,-,-
CCc1noc(C(C)N2CCN(c3ncnc4sccc34)CC2)n1 (stereo not shown),-0.1564,17.92,-41.7,2.041
CN(C)c1nc(N)nc(CSCCC(=O)Nc2cccc(Cl)c2)n1,-1.84,-23.86,-3.441,8.671
CCC1=NN2C(=N)/C(=C\c3cccn3-c3ccc(Cl)cc3)C(=O)N=C2S1,-2.375,-2.316,-9.148,3
Cc1nc(CCNC(=O)C2CC(=O)N(C(C)C)C2)sc1C (stereo not shown),-0.1505,-0.3599,1.312,1.961
[H][C@@]12C[C@H](C(=O)N3CCCC3)[C@@]([H])(CN(C(=O)NCc3ccccc3)C1)O2,-,3.733,-,-
Cc1cnn(CC2CCN(CC(O)Cn3cccn3)CC2)c1 (stereo not shown),-0.4989,23.07,-,1.739
Cc1sc(NC(=O)CN2CCCC(c3ncc[nH]3)C2)c(C)c1C (stereo not shown),-1.575,5.018,-12.44,4.167
CCOc1ccc(CC(=O)N2C[C@H](C3CC3)[C@@H](N)C2)cc1,-0.1325,-1.992,-,15.06
CS(=O)(=O)N1CCN(C(=O)C2CSCCC(=O)N2)CC1 (stereo not shown),5.163,-0.6665 and -23.05,-4.2,-2.41
CCCNC(=O)Cn1cc(-c2ccccc2)cn1,1.072,-6.572,-16.44,5.639
N#Cc1ccc(CC(=O)N2CCC(Nc3cccnn3)CC2)cc1,-2.13,-0.8229,-9.256,6.017
CN1CC[C@H]2OCC[C@@H](C(=O)NCc3ccco3)[C@@H]2C1,-3.285,-,-5.025,4.202
COC[C@@]12CCO[C@@H]1CCN(C(=O)C1CCOCC1)C2,0.08176,-,-7.243,7.216
[H][C@]12CC[C@@H](Nc3cccnn3)[C@@]1([H])CN(Cc1ccc3cc[nH]c3c1)C2,-,7.926,-,-
CCC1COCCN1C(=O)CNC(=O)c1ccc2c(c1)CCC2 (stereo not shown),2.039,-11.26,-4.413,7.843
COCCC(=O)Nc1cc(CC(C)(C)C)n[nH]1,2.659,2.023,12.36,8.333
Cc1ccc(-c2n[nH]cc2CNCC2CCc3nnc(C)n3C2)cc1 (stereo not shown),-0.0748,-2.719,-25.76,5.759
[H][C@]12CCN(Cc3ccc4c(c3)OCO4)[C@@]1([H])CCN2CCN(C)C,-,24.58,-,-
CNCc1ccc(OCc2ccc3c(c2)OCCO3)cc1,-12.2,-,-12.1,3.727
CN1Cc2cnn(CC3CCCC3)c2C(COCC2CC2)C1 (stereo not shown),-5.105,-,-6.658,8.772
O=C(O)C(F)(F)F.O=C(O)C(F)(F)F.[H][C@@]12CN(Cc3ccsc3)CCC[C@]1(C(=O)OCC)CN(CCOC)C2,-,34.69,-,-
C[C@H]1CN(c2ccccn2)C[C@@]12CCN(Cc1cccnc1)C2=O.O=C(O)C(F)(F)F.O=C(O)C(F)(F)F,-,7.593,-,-
Cc1cnc2n1CCN(C)C21CCN(C(=O)CC(C)C)CC1.O=C(O)C(F)(F)F,-,-7.414,-,-
CC(=O)Nc1ccc(F)c(S(=O)(=O)NC(C)(C)C)c1,-4.47,-5.308,-19.74,8.38
COCCc1noc(CN2CCCC(Cn3nc(C)nc3C)C2)n1 (stereo not shown),3.052,28.72,-9.202,3.008
Cc1nc(C)n(CC2CCCN2CC(=O)Nc2ccncc2)n1 (stereo not shown),-2.311,50.98,-0.9571,4.878
Cc1nn(C)c(C)c1C1CCCN1CC(=O)NC(C1CC1)C1CC1 (stereo not shown),3.678,7.804,-30.42,3.759
O=C(O)C(F)(F)F.O=C(O)C(F)(F)F.[H][C@@]12CCC(=O)N(Cc3cccc(C)n3)[C@]1([H])CCN2Cc1ccc(F)cc1,-,32.73,-,-
CC(=O)Nc1cc(C(=O)Nc2cc(CC(C)(C)C)nn2C)ccc1F,0.3396,-0.4424,-67.56,12.99
CCCc1nnc2sc(C3CCS(=O)(=O)CC3)nn12,10.18,40.66,-15.01,-25.37
O=C(O)C(F)(F)F.O=C(O)C(F)(F)F.[H][C@]12CCC(=O)N(CC3CCOCC3)[C@@]1([H])CCN2Cc1ccccn1,-,21.31,-,-
CC(C)c1nc(C2CCCN2C(=O)c2cnns2)no1 (stereo not shown),-5.709,-6.101,-9.073,5.539
Cc1nc(C(=O)N(Cc2c(C)nn(C)c2C)C(C)C)cs1,1.554,20.95,-26.27,6.404
O=C(O)C(F)(F)F.[H][C@@]12CCN(S(C)(=O)=O)[C@]1([H])CC[C@@H](C(=O)NCCc1ccccn1)O2,-,21.1,-,-
Cc1cccc(C(=O)N(C)C2CCN(c3ccccn3)CC2)c1C,-0.8777,-9.473,-12.46,7.289
CN(C)CCN1C[C@@H]2CN(c3ccccc3)C[C@@H]2C1=O,-,-,-33.25,7.407
COc1ccccc1C(=O)N1CCCC1Cn1cc(C)cn1 (stereo not shown),-3.834,25.14,-5.825,7.519
N#CCCN(CC1CCOC1)Cn1ccc(-c2cccs2)n1 (stereo not shown),-0.07764,7.983,-7.912,7.216
c1csc(-c2nc(CN3CCCC3Cn3cccn3)co2)c1 (stereo not shown),1.028,-43.37,4.297,4.294
COCc1nn(C(C)C)c2c1CCN(Cc1ccsc1)C2,-1.652,-7.785,-0.3371,0.8772
COC(=O)CN1CCSC(c2ccccc2)C1 (stereo not shown),2.034,13.65,-1.342,1.242
CC(Cn1cccn1)NC(=O)NCc1ccnc(OC2CCCC2)c1 (stereo not shown),0.5363,34.18,-11.79,5.65
CC(C)[C@@H]1CN(Cc2cnc(C3CCCCC3)nc2)C[C@H]1C(=O)O,-3.13,16.99,-0.2953,5.464
COCC(NC(=O)c1cc(C)n(C)n1)c1cccc(C(F)(F)F)c1 (stereo not shown),-5.487,18.28,0.9003,4.933
Cc1cccc(S(=O)(=O)N2C[C@H]3C[C@H](C(=O)N(C)C)[C@@H](C2)O3)c1,2.229,-,-36.54,6.135
O=C(c1ccc(Cn2cnnn2)cc1)N1CCC(c2ccncc2)CC1,-0.2441,23.29,-8.007,3.863
CC1=Nc2c(c(=O)[nH]n2C(C)C)C(c2cccs2)S1 (stereo not shown),1.809,16.2,-30.73,4.918
Cc1n[nH]c(C2CN(C(=O)c3ccnc(C4CC4)n3)CCO2)n1 (stereo not shown),-3.362,1.138,-15.28,1.887
FC(F)(F)CCN(Cc1ccon1)C1CCC1,-5.21,2.57,5.146,6.897
Cc1cccnc1NC(=O)C1CCN(C(C)C(=O)NC(C)(C)C)CC1 (stereo not shown),-0.819,30.04,-26.16,1.657
COCCC(=O)N1C[C@H]2CN(Cc3cccc(C)c3)C(=O)[C@H]2C1,-9.012,-,-25.27,1.942
CN(Cc1cn2c(n1)CN(C1CCOC1)CC2)Cc1ccco1.O=C(O)C(F)(F)F.O=C(O)C(F)(F)F (stereo not shown),-,27.98,-,-
c1csc(-c2nc(CN3CCOC(Cn4cccn4)C3)co2)c1 (stereo not shown),-1.017,12.91,-,3.008
COc1cc(CNc2nc3c(c(=O)[nH]2)CCNC3)cc(OC)c1OC,1.459,-11.4,-5.817,-0.578
O=C(NCc1cccnc1)[C@@H]1CC[C@@H]2[C@@H](CCN2c2ncccn2)O1,17.97,-,-11.73,7.143

The first 8 entries again:

{"smiles": "CNC(=O)CNC(=O)NCc1cc2c(s1)CCC(C)(C)C2", "MtTrpRS": 2.352, "Leishmania in macrophages": 2.136, "Pks13 thioesterase": -28.44, "TcHisRS": -0.5525}
{"smiles": "CC1COCCN1C(=O)NCCn1ccnc1", "stereo": "stereo not shown", "MtTrpRS": -2.886, "Leishmania in macrophages": 17.06, "Pks13 thioesterase": -37.18, "TcHisRS": 2.809}
{"smiles": "O=C(O)C(F)(F)F.[H][C@@]12CCN(Cc3ccc(C)s3)C[C@]1([H])[C@H](c1nc(C)no1)CCO2", "Leishmania in macrophages": 34.21}
{"smiles": "CCc1noc(C(C)N2CCN(c3ncnc4sccc34)CC2)n1", "stereo": "stereo not shown", "MtTrpRS": -0.1564, "Leishmania in macrophages": 17.92, "Pks13 thioesterase": -41.7, "TcHisRS": 2.041}
{"smiles": "CN(C)c1nc(N)nc(CSCCC(=O)Nc2cccc(Cl)c2)n1", "MtTrpRS": -1.84, "Leishmania in macrophages": -23.86, "Pks13 thioesterase": -3.441, "TcHisRS": 8.671}
{"smiles": "CCC1=NN2C(=N)/C(=C\\c3cccn3-c3ccc(Cl)cc3)C(=O)N=C2S1", "MtTrpRS": -2.375, "Leishmania in macrophages": -2.316, "Pks13 thioesterase": -9.148, "TcHisRS": 3}
{"smiles": "Cc1nc(CCNC(=O)C2CC(=O)N(C(C)C)C2)sc1C", "stereo": "stereo not shown", "MtTrpRS": -0.1505, "Leishmania in macrophages": -0.3599, "Pks13 thioesterase": 1.312, "TcHisRS": 1.961}
{"smiles": "[H][C@@]12C[C@H](C(=O)N3CCCC3)[C@@]([H])(CN(C(=O)NCc3ccccc3)C1)O2", "Leishmania in macrophages": 3.733}